Reference: PMC10570362

Sequences of proteins named here, by UniProt entry; tags and fusion partners are left off.
UniProt Q5PSV9: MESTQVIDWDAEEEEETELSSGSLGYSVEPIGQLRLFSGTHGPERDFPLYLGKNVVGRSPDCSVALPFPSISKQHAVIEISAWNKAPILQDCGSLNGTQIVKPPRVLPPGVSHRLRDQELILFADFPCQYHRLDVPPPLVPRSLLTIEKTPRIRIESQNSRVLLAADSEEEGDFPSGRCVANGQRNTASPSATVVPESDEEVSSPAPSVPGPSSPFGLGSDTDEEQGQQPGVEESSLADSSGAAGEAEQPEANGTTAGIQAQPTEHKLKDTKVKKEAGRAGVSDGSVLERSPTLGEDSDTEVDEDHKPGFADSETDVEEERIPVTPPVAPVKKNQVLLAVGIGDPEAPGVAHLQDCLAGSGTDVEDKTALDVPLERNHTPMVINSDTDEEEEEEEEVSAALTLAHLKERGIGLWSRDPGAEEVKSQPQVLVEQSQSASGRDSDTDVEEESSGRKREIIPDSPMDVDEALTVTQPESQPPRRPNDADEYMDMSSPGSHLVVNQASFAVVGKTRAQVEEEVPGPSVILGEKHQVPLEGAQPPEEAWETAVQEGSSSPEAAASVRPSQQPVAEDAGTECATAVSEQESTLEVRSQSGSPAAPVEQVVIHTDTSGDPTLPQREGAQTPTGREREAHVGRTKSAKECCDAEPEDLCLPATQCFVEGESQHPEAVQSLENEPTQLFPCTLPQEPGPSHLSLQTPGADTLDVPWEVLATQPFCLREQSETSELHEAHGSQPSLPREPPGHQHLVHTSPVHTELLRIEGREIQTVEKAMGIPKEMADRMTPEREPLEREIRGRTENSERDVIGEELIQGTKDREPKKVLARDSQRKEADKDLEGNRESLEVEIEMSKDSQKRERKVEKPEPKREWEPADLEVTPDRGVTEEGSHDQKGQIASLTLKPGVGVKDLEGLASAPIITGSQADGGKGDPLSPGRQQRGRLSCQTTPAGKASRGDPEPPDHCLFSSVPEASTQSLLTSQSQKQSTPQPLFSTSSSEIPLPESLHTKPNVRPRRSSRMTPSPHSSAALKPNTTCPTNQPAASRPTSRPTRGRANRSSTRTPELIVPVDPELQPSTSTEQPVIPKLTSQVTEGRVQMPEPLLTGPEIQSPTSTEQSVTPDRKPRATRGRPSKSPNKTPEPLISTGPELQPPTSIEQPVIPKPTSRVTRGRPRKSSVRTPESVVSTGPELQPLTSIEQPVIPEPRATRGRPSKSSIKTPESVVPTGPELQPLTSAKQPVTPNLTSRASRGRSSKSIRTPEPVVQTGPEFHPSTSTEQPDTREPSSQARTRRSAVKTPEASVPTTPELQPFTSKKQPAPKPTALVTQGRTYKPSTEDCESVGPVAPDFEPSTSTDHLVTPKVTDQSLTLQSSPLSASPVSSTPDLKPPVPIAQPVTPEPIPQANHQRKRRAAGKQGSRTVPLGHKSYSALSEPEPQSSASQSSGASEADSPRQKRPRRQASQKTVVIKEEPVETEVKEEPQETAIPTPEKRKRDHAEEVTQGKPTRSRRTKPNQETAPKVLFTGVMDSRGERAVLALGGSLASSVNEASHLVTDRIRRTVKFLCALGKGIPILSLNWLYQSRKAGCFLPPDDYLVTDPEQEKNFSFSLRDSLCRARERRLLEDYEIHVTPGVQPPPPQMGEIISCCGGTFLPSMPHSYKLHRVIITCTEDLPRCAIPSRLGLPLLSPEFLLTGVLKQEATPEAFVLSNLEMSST

Experiments:
[1] = target: T1, High-mobility group AT-hook protein 2 (HMGA2), endogenous, mouse (mouse (endogenous in E11.5 neocortex)) (UniProt P52927); assay: affinity purification with mass spectrometry; endogenous HMGA2 precipitated with antibodies to HMGA2 (Cell Signaling #8179) cross-linked to protein A-Dynabeads from the solubilised chromatin fraction (400 mM KCl buffer) of E11.5 mouse neocortex cells, 4 °C; control rabbit IgG
T1 sequence: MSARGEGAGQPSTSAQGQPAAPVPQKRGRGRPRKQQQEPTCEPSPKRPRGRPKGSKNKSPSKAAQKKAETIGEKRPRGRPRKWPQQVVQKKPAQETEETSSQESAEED

[2] = target: T2, mouse HMGA2 overexpressed in Neuro2A cells (mouse) (UniProt P52927); assay: affinity purification with mass spectrometry; IP-MS of HMGA2 from the chromatin fraction of Neuro2A cells overexpressing mouse HMGA2, collected 1 day after transfection
T2 sequence: T1 sequence

How did the binding [1] turn out when “mediator of DNA damage checkpoint protein 1 (MDC1), mouse, endogenous (from UniProt Q5PSV9 1-1707)” was run?
Its binding is “binds”.

And the binding [2]?
Its binding is “binds”.

No constants are given. Whether binding was seen depends on the method and setting. Binding seen in cells or lysates may run through a third protein. These calls come from enrichment with a bait or labelling near it, and not all partners need be listed.
